Test [1] has as its system animal model in which MK-801 was administered to wild-type mice. Particulars: wild-type mice given MK-801, FIG. 7.
In test [2] the test system is Cntnap2-deficient animal model (autism). Description: three-chamber test in Cntnap2-deficient autism animal model. The format is in vivo, mouse. Particulars: Cntnap2 KO mice, lisuride intraperitoneally 50 ug/kg, single or 5 days treatment, FIG. 4. The method, then: Purchased a 5-week-old Cntnap2 knockout mouse (Jackson Laboratory, USA) weighing about 22 g to 24 g and acclimatize to an environment with a temperature of 23±2° C., humidity of 55±10%, and a light-dark cycle of 12 hours while allowing them to freely consume water and feed. After breeding (Konkuk University Laboratory Animal Center), they were used for experiments. Wild-type (WT) mice showing normal expression of Cntnap2 and KO mice lacking Cntnap2 expression were used. The dosing and testing were performed according to the age of the week. Dosing was performed at the same time. Behavioral experiments were conducted 30 minutes after administration. It was divided into groups administered with 1 mg/kg each of lisuride (Sigma Aldrich) or 0.25 (v/v) % DMSO in Cntnap2 expression-deficient knock-out mice or wild-type mice. For the drug administration group, lisuride was dissolved in 0.25% DMSO and then administered intraperitoneally at a dose of 50 ug/kg. Meanwhile, 0.25 (v/v) % DMSO was intraperitoneally administered to the control group.
To confirm the therapeutic effect of Iisuride on the lack of sociability, one of the phenotypes of developmental disorders, a three-chamber test was performed using an animal model lacking Cntnap2. Experimental results were expressed as a social interaction index by measuring the time the test mouse approaches or sniffs each stimulus mouse. […]

Turning to `CCN(CC)C(=O)N[C@H]1C=C2c3cccc4[nH]cc(c34)C[C@H]2N(C)C1` [lisuride, 1,1-Diethyl-3-(7-methyl-4,6,6a,7,8,9-hexahydro-indolo [4,3-fg]quinolin-9-yl)-urea], the “hyperactivity in open-field test” value in test [1] was “significantly reduced”. Also, in test [2], the “sociability: time spent and sniffing with novel versus familiar mouse (social interaction index)” value is “spent more time and sniffed more with the novel mouse than the familiar mouse”.

These data come from patent US20230024384A1, “C[…] COMPOUND FOR TREATING FRAGILE X SYNDROME OR RELATED DEVELOPMENTAL DISORDERS” (NEUROVENTI, priority 2020, published 2023).
